# Assay results from the supplement of paper PMC8728848.
# Some of the results follow.
# B1: AFL6 (Aspergillus fumigatus), Q4WKJ1 (protein)
# chain: MSFHLTAEDIRIEDGHRLVARLRNADGDLQDASIDLNTCLGNDNGHFQWDGVDFSHSAQDVHFAIEGGGQVPVLRAQLANQDGEFQDADVNLSERIENINGEFVFH
# Assays:
# Test in all cases: glycan array binding signal (z-score within array); higher = stronger binding
# Settings in all cases: glycan notation: IUPAC condensed, linker removed
# [1] = molecular target: Gal(b1-4)GlcNAc(b1-3)Gal(b1-4)GlcNAc(b1-3)[Gal(b1-4)GlcNAc(b1-3)Gal(b1-4)GlcNAc(b1-6)]GalNAc
# Outline: (§1)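 Glycan array data came from 3228 arrays in the Consortium for Functional Glycomics database, and only arrays with an available protein sequence were kept. Glycan names were put into IUPAC-condensed notation, and columns mapping to the same glycan were averaged. The binding signal is a within-array Z-score, averaged across arrays of one protein sequence run at different concentrations or buffers and across linkers. A negative Z-score can be read as non-binding.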
# [2] = molecular target: Gal(b1-4)GlcNAc(b1-3)Gal(b1-4)GlcNAc(b1-6)[Gal(b1-3)]GalNAc
# Outline: as §1
# [3] = molecular target: Gal(b1-4)GlcNAc(b1-3)Gal(b1-4)[Fuc(a1-3)]GlcNAc(b1-3)Gal(b1-4)[Fuc(a1-3)]GlcNAc
# Outline: as §1
# [4] = molecular target: Gal(b1-4)GlcNAc(b1-3)GalNAc
# Outline: as §1
# [5] = molecular target: Gal(b1-4)GlcNAc(b1-3)[Fuc(a1-3)GlcNAc(b1-6)]Gal(b1-4)Glc
# Outline: as §1
# [6] = molecular target: Gal(b1-4)GlcNAc(b1-3)[Gal(b1-4)GlcNAc(b1-6)]Gal(b1-4)GlcNAc
# Outline: as §1
# [7] = molecular target: Gal(b1-4)GlcNAc(b1-3)[GlcNAc(b1-6)]Gal(b1-4)GlcNAc
# Outline: as §1
# [8] = molecular target: Gal(b1-4)GlcNAc(b1-6)Gal(b1-4)GlcNAc
# Outline: as §1
# [9] = molecular target: Gal(b1-4)GlcNAc(b1-6)GalNAc
# Outline: as §1
# [10] = molecular target: Gal(b1-4)GlcNAc(b1-6)[Gal(b1-3)]GalNAc
# Outline: as §1
# [11] = molecular target: Gal(b1-4)GlcNAc(b1-6)[Gal(b1-4)GlcNAc(b1-3)]GalNAc
# Outline: as §1
# Gal(b1-4)GlcNAc6P = molecular target: Gal(b1-4)GlcNAc6P
# Outline: as §1
# Gal(b1-6)Gal = molecular target: Gal(b1-6)Gal
# Outline: as §1
# Gal3S(b1-3)GalNAc = molecular target: Gal3S(b1-3)GalNAc
# Outline: as §1
# Gal3S(b1-3)GlcNAc = molecular target: Gal3S(b1-3)GlcNAc
# Outline: as §1
# [12] = molecular target: Gal3S(b1-3)[Fuc(a1-4)]GlcNAc
# Outline: as §1
# Gal3S(b1-4)Glc = molecular target: Gal3S(b1-4)Glc
# Outline: as §1
# Gal3S(b1-4)Glc6S = molecular target: Gal3S(b1-4)Glc6S
# Outline: as §1
# Gal3S(b1-4)GlcNAc = molecular target: Gal3S(b1-4)GlcNAc
# Outline: as §1
# [13] = molecular target: Gal3S(b1-4)[Fuc(a1-3)]Glc6S
# Outline: as §1
# [14] = molecular target: Gal3S(b1-4)[Fuc(a1-3)]GlcNAc
# Outline: as §1
# [15] = molecular target: Gal3S(b1-4)[Fuc(a1-3)]GlcNAc6S
# Outline: as §1
# Gal3S4S(b1-4)GlcNAc = molecular target: Gal3S4S(b1-4)GlcNAc
# Outline: as §1
# Gal3S6S(b1-4)GlcNAc = molecular target: Gal3S6S(b1-4)GlcNAc
# Outline: as §1
# Gal3S6S(b1-4)GlcNAc6S = molecular target: Gal3S6S(b1-4)GlcNAc6S
# Outline: as §1
# Gal4S(b1-4)GlcNAc = molecular target: Gal4S(b1-4)GlcNAc
# Outline: as §1
# Gal4S6S(b1-4)GlcNAc = molecular target: Gal4S6S(b1-4)GlcNAc
# Outline: as §1
# Gal6P(b1-4)GlcNAc = molecular target: Gal6P(b1-4)GlcNAc
# Outline: as §1
# Gal6S(b1-3)GlcNAc = molecular target: Gal6S(b1-3)GlcNAc
# Outline: as §1
# Gal6S(b1-3)GlcNAc6S = molecular target: Gal6S(b1-3)GlcNAc6S
# Outline: as §1
# Gal6S(b1-4)Glc = molecular target: Gal6S(b1-4)Glc
# Outline: as §1
# Gal6S(b1-4)Glc6S = molecular target: Gal6S(b1-4)Glc6S
# Outline: as §1
# Gal6S(b1-4)GlcNAc = molecular target: Gal6S(b1-4)GlcNAc
# Outline: as §1
# Gal6S(b1-4)GlcNAc6S = molecular target: Gal6S(b1-4)GlcNAc6S
# Outline: as §1
# GalNAc(a1-3)Gal = molecular target: GalNAc(a1-3)Gal
# Outline: as §1
# GalNAc(a1-3)GalNAc = molecular target: GalNAc(a1-3)GalNAc
# Outline: as §1
# [16] = molecular target: GalNAc(a1-3)GalNAc(b1-3)Gal(a1-4)Gal(b1-4)Glc
# Outline: as §1
# [17] = molecular target: GalNAc(a1-3)GalNAc(b1-3)Gal(a1-4)Gal(b1-4)GlcNAc
# Outline: as §1
# GalNAc(b1-3)Gal = molecular target: GalNAc(b1-3)Gal
# Outline: as §1
# [18] = molecular target: GalNAc(b1-3)Gal(a1-4)Gal(b1-4)GlcNAc
# Outline: as §1
# [19] = molecular target: GalNAc(b1-3)Gal(a1-4)Gal(b1-4)GlcNAc(b1-3)Gal(b1-4)Glc
# Outline: as §1
# [20] = molecular target: GalNAc(b1-3)Gal(a1-6)Gal(b1-4)Glc
# Outline: as §1
# GalNAc(b1-3)GalNAc = molecular target: GalNAc(b1-3)GalNAc
# Outline: as §1
# GalNAc(b1-3)GlcNAc = molecular target: GalNAc(b1-3)GlcNAc
# Outline: as §1
# GalNAc(b1-4)Gal(b1-4)Glc = molecular target: GalNAc(b1-4)Gal(b1-4)Glc
# Outline: as §1
binder,measurement,setting,value
B1,glycan array binding signal (z-score),[1],4.09
same,glycan array binding signal (z-score),[2],0.866
same,glycan array binding signal (z-score),[3],0.241
same,glycan array binding signal (z-score),[4],-0.442
same,glycan array binding signal (z-score),[5],-0.272
same,glycan array binding signal (z-score),[6],-0.388
same,glycan array binding signal (z-score),[7],-0.687
same,glycan array binding signal (z-score),[8],-0.693
same,glycan array binding signal (z-score),[9],0.156
same,glycan array binding signal (z-score),[10],-0.275
same,glycan array binding signal (z-score),[11],0.337
same,glycan array binding signal (z-score),Gal(b1-4)GlcNAc6P,-0.065
same,glycan array binding signal (z-score),Gal(b1-6)Gal,0.135
same,glycan array binding signal (z-score),Gal3S(b1-3)GalNAc,-0.743
same,glycan array binding signal (z-score),Gal3S(b1-3)GlcNAc,-0.074
same,glycan array binding signal (z-score),[12],-0.44
same,glycan array binding signal (z-score),Gal3S(b1-4)Glc,-0.364
same,glycan array binding signal (z-score),Gal3S(b1-4)Glc6S,0.622
same,glycan array binding signal (z-score),Gal3S(b1-4)GlcNAc,-0.043
same,glycan array binding signal (z-score),[13],0.32
same,glycan array binding signal (z-score),[14],0.11
same,glycan array binding signal (z-score),[15],-0.4
same,glycan array binding signal (z-score),Gal3S4S(b1-4)GlcNAc,0.473
same,glycan array binding signal (z-score),Gal3S6S(b1-4)GlcNAc,0.192
same,glycan array binding signal (z-score),Gal3S6S(b1-4)GlcNAc6S,-0.064
same,glycan array binding signal (z-score),Gal4S(b1-4)GlcNAc,-0.569
same,glycan array binding signal (z-score),Gal4S6S(b1-4)GlcNAc,0.69
same,glycan array binding signal (z-score),Gal6P(b1-4)GlcNAc,-0.655
same,glycan array binding signal (z-score),Gal6S(b1-3)GlcNAc,-0.443
same,glycan array binding signal (z-score),Gal6S(b1-3)GlcNAc6S,-0.708
same,glycan array binding signal (z-score),Gal6S(b1-4)Glc,-0.525
same,glycan array binding signal (z-score),Gal6S(b1-4)Glc6S,-0.382
same,glycan array binding signal (z-score),Gal6S(b1-4)GlcNAc,-0.617
same,glycan array binding signal (z-score),Gal6S(b1-4)GlcNAc6S,-0.589
same,glycan array binding signal (z-score),GalNAc(a1-3)Gal,-0.189
same,glycan array binding signal (z-score),GalNAc(a1-3)GalNAc,-0.209
same,glycan array binding signal (z-score),[16],-1.16
same,glycan array binding signal (z-score),[17],0.088
same,glycan array binding signal (z-score),GalNAc(b1-3)Gal,0.391
same,glycan array binding signal (z-score),[18],-0.5
same,glycan array binding signal (z-score),[19],-0.055
same,glycan array binding signal (z-score),[20],-0.139
same,glycan array binding signal (z-score),GalNAc(b1-3)GalNAc,-0.414
same,glycan array binding signal (z-score),GalNAc(b1-3)GlcNAc,0.165
same,glycan array binding signal (z-score),GalNAc(b1-4)Gal(b1-4)Glc,0.175

# Part of the list above, bar-delimited.
binder | measurement | setting | value
B1 | glycan array binding signal (z-score) | Gal3S(b1-4)Glc6S | 0.622
same | glycan array binding signal (z-score) | Gal3S(b1-4)GlcNAc | -0.043
same | glycan array binding signal (z-score) | [13] | 0.32
same | glycan array binding signal (z-score) | [14] | 0.11
same | glycan array binding signal (z-score) | [15] | -0.4
same | glycan array binding signal (z-score) | Gal3S4S(b1-4)GlcNAc | 0.473
same | glycan array binding signal (z-score) | Gal3S6S(b1-4)GlcNAc | 0.192
same | glycan array binding signal (z-score) | Gal3S6S(b1-4)GlcNAc6S | -0.064
same | glycan array binding signal (z-score) | Gal4S(b1-4)GlcNAc | -0.569
same | glycan array binding signal (z-score) | Gal4S6S(b1-4)GlcNAc | 0.69
